Assay: DWFPIA of milk samples (LOD, detectable range, recovery)
Conditions: for LOD: milk, mean of 20 blank controls plus three SD
[1] = blank milk spiked at 20 μg L^−1, n = 3

Structure (SMILES)	Recovery [1] [%]	Recovery (blank milk spiked at 50 μg L^−1, n = 3) [%]	Recovery (blank milk spiked at 100 μg L^−1, n = 3) [%]	LOD [µg/L]	Recovery (blank milk spiked at 5 μg L^−1, n = 3) [%]	Recovery (blank milk spiked at 35 μg L^−1, n = 3) [%]
Cc1cc(C)nc(NS(=O)(=O)c2ccc(N)cc2)n1 [SMZ, Sulfamethazine]	81.7	97.2	84.5	3.3		
COc1cc(Cc2cnc(N)nc2N)cc(OC)c1OC [TMP, Trimethoprim]	103.6			0.7	78.6	90.5

From PMC9688798, “Dual-Wavelength Fluorescence Polarization Immunoassay for Simultaneous Detection of Sulfonamides and Antibacterial Synergists in Milk” (Biosensors, 2022)
